This is an account of results in publication PMC7611231, “Allosteric Activation of the ATPase Activity of the Escherichia coli RhlB RNA Helicase*” (The Journal of biological chemistry, 2007).

These are yes or no findings as the source states them, for the method shown.

The target of assay [1] is Escherichia coli DEAD box RNA helicase RhlB, wild type (E. coli) (UniProt P0A8J8). The experiment in a line: SEC; S200 size exclusion of the purified helicase alone; both purified.
Assay [2] shares this target. Put plainly: native MS; nanoflow ESI under non-dissociating conditions; apo-RhlB (without the RNase E peptide), 5-20 uM, 250 mM ammonium acetate; both purified.

B1: Escherichia coli DEAD box RNA helicase RhlB, wild type (enzyme, E. coli, UniProt P0A8J8 1-421, looked up)
chain: MSKTHLTEQKFSDFALHPKVVEALEKKGFHNCTPIQALALPLTLAGRDVAGQAQTGTGKTMAFLTSTFHYLLSHPAIADRKVNQPRALIMAPTRELAVQIHADAEPLAEATGLKLGLAYGGDGYDKQLKVLESGVDILIGTTGRLIDYAKQNHINLGAIQVVVLDEADRMYDLGFIKDIRWLFRRMPPANQRLNMLFSATLSYRVRELAFEQMNNAEYIEVEPEQKTGHRIKEELFYPSNEEKMRLLQTLIEEEWPDRAIIFANTKHRCEEIWGHLAADGHRVGLLTGDVAQKKRLRILDEFTRGDLDILVATDVAARGLHIPAVTHVFNYDLPDDCEDYVHRIGRTGRAGASGHSISLACEEYALNLPAIETYIGHSIPVSKYNPDALMTDLPKPLRLTRPRTGNGPRRTGAPRNRRRSG
notes: The same untagged protein from two vectors (pET11a alone; second cloning site of pRSF-Duet-1, NdeI/XhoI, in pRneRhlB); also called WT RhlB; Helicase B; source: E. coli BL21(DE3), pET11a, purified (published procedure plus S200 size exclusion)
With B1, the binding result in assay [1] and in assay [2] was “no binding” in each case.
